Test results published in article PMC7819943, “Rice protein-binding microarrays: a tool to detect cis-acting elements near promoter regions in rice”.
Some of the results follow.

Chains of the proteins cited; added tags and fusions are not shown.
UniProt Q0JBA9, entry or part of it: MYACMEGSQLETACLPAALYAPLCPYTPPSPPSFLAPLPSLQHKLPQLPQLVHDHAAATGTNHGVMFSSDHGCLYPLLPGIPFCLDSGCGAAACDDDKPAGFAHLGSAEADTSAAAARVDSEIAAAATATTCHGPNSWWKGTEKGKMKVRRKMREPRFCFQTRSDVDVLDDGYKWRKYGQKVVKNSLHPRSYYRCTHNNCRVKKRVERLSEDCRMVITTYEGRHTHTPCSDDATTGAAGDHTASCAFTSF

Target: OsWRKY34 (Oryza sativa, UniProt Q0JBA9 1-250)
Assay: protein-binding microarray (RPBM); PBS, 2% BSA, 51.3 ng/ul salmon testes DNA, 50 uM zinc acetate, 200 nM TF, 25 C, 1 h; high values mean tight binding
Conditions: protein: recombinant; tags: N-terminal polyhistidine and DsRed monomer fusion (pET32a); label: CyDye5-dUTP incorporated in the synthesized complementary strand; 3' TTTTT single-stranded linker to array surface; dsDNA, one strand shown
Summary of the method: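 The binding signal is fluorescence intensity per array feature (arbitrary units). Readings came from an Axon 4000B scanner after a washed, 2% BSA-blocked, double-stranded custom Agilent array had been incubated for 1 h at 25 °C with 200 nM protein and 50 µM zinc acetate. The protein was a Ni–NTA-purified transcription factor fused N-terminally to polyhistidine and DsRed, expressed in E. coli BL21-CodonPlus.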

| Sequence | binding signal |
| --- | --- |
| AAAAAAAACCACCACGCCTCGTTCAGTCACTCGCACGCTCCGGAGTCACCTAGTGCAG | 9810 fluorescence intensity (a.u.) |
| ACGCCGGCGACCACCTCCCAACATCCTCTCTCATGTCGCACGGAGTCACCTAGTGCAG | 8680 fluorescence intensity (a.u.) |
| CAATGACCCTACACCGGCAACAAACAAGTCGGTCGACACCCGGAGTCACCTAGTGCAG | 8290 fluorescence intensity (a.u.) |
| ACCCCGACCATCTCCCACCATCGGAGGAGACGCTCAAACTCGGAGTCACCTAGTGCAG | 8340 fluorescence intensity (a.u.) |
| CTTTTGTTTTTCCTTTTTTCTCACTTGTCCCTACTTGACCCGGAGTCACCTAGTGCAG | 10700 fluorescence intensity (a.u.) |
| AGCAATCAAGTTCAAGCCATCTTTATTTGCAGCTCACATTCGGAGTCACCTAGTGCAG | 8380 fluorescence intensity (a.u.) |
| TAACTCTCTCCTAACTGTCATGGTGCTCTACACTCTTCCACGGAGTCACCTAGTGCAG | 9990 fluorescence intensity (a.u.) |
| GCGCAGGACGCGGAGGAAGAGGCGGAGGGTGGCGGAGGGGCGGAGTCACCTAGTGCAG | 8250 fluorescence intensity (a.u.) |
| CCCACACTGCAAACACCTTAATTAGTACTACTACTAGTCACGGAGTCACCTAGTGCAG | 9450 fluorescence intensity (a.u.) |
| GCTGCTCGGATTTGATTGATTGATTGATTGGCGGGTGGTCCGGAGTCACCTAGTGCAG | 8590 fluorescence intensity (a.u.) |
| GGGGAGTACAGCTATCATTTTGTGGTTATTTCAATATAATCGGAGTCACCTAGTGCAG | 10800 fluorescence intensity (a.u.) |
| CCTCGTTCTCCCTCGCCAGCGACGCCTCCTCCTTCGCCTGCGGAGTCACCTAGTGCAG | 8160 fluorescence intensity (a.u.) |
| AGGAGTCCGATGCGGGCGACTTCTCGGGCGGGGAGGAGAACGGAGTCACCTAGTGCAG | 8990 fluorescence intensity (a.u.) |
| ATCGGCTGTGTTGTGACCAATGTGCCCCTGGCTCAGAAATCGGAGTCACCTAGTGCAG | 8690 fluorescence intensity (a.u.) |
| GATCAAAATTTTAGTCTCTGATCCTAAAGTGCACATATTTCGGAGTCACCTAGTGCAG | 8650 fluorescence intensity (a.u.) |
| ATGTAAGTCATTCTAGCATTTTTTACATTCATATTGATGTCGGAGTCACCTAGTGCAG | 9380 fluorescence intensity (a.u.) |
| CTTGATGAGTTATACCACTTTGTTATTGATGATTTTTTTCCGGAGTCACCTAGTGCAG | 9700 fluorescence intensity (a.u.) |
| CTTCAGGACTCTGCACTTGCTTCCATTCTACTCCGGCCATCGGAGTCACCTAGTGCAG | 11300 fluorescence intensity (a.u.) |
| GCATCGTCGCCCTCCACGTCGCCGCCGCCGCCGCCGCCGGCGGAGTCACCTAGTGCAG | 8450 fluorescence intensity (a.u.) |
| ATTTACCTTTTAGCGTCCCTGGTTGCTTTATTTACACTATCGGAGTCACCTAGTGCAG | 9180 fluorescence intensity (a.u.) |
| GTTTCTTTTTTTTTCCTGCTCACTGGATTTTCCATGTCACCGGAGTCACCTAGTGCAG | 9700 fluorescence intensity (a.u.) |

Rewritten field by field: part of the list above
ACGCCGGCGACCACCTCCCAACATCCTCTCTCATGTCGCACGGAGTCACCTAGTGCAG
  binding signal = 8680 fluorescence intensity (a.u.)
AGGAGTCCGATGCGGGCGACTTCTCGGGCGGGGAGGAGAACGGAGTCACCTAGTGCAG
  binding signal = 8990 fluorescence intensity (a.u.)

Remaining list, next part

| Sequence | binding signal |
| --- | --- |
| GATGCGTAGCGAGTTGCATATGATCATATATATATATATACGGAGTCACCTAGTGCAG | 8190 fluorescence intensity (a.u.) |
| GTCCGGTTGAACGAGATCTATTGACGCTTGACTTGTCTCACGGAGTCACCTAGTGCAG | 8670 fluorescence intensity (a.u.) |
| AATCGCTCGCACAGCCGCATCTTCCGCCGCCACGGCTTCTCGGAGTCACCTAGTGCAG | 10600 fluorescence intensity (a.u.) |
| AAGCCATGGGGCACACTCCCATCACCAGTTTATTCCTGTACGGAGTCACCTAGTGCAG | 8490 fluorescence intensity (a.u.) |
| ATCACCAATCGTCTCTTTTTTATTTGTTGAACAAACTTATCGGAGTCACCTAGTGCAG | 9540 fluorescence intensity (a.u.) |
| ATCTAGCGGTCTCTTTGTTTCGTTTATACTTATATTTATCCGGAGTCACCTAGTGCAG | 9550 fluorescence intensity (a.u.) |
| TCCCTCCAGTGACGACACAACTGAATTCGGTGCCTTCCTTCGGAGTCACCTAGTGCAG | 8340 fluorescence intensity (a.u.) |
| AACACCCTTACTACTCCTGCTCCTACGACCGCGATCTTCTCGGAGTCACCTAGTGCAG | 11800 fluorescence intensity (a.u.) |
| ATATCCCGCAGCGATAATCCTTTTCACTCCCACCAAAGCCCGGAGTCACCTAGTGCAG | 11600 fluorescence intensity (a.u.) |
| ACAGCCTCATCGATGTTTTTAGTTTTAGTATATACGACATCGGAGTCACCTAGTGCAG | 8140 fluorescence intensity (a.u.) |
| CTGATCCTTATCTTTTGCATGTACTTAAGTCTATATAATGCGGAGTCACCTAGTGCAG | 10800 fluorescence intensity (a.u.) |
| ATTCCTCTTGCAGTCTTGCAGCCCCAGTCAACTCCTACCCCGGAGTCACCTAGTGCAG | 8330 fluorescence intensity (a.u.) |
| TCCACCTCCGCCTCCGCCACAGCCGCGCCGCGCCGCTCCCCGGAGTCACCTAGTGCAG | 10200 fluorescence intensity (a.u.) |
| CTCTCTCTCGTCGTCTCCGTCTCCGGCTTCCCCTATCCATCGGAGTCACCTAGTGCAG | 10300 fluorescence intensity (a.u.) |
| AGCTTGGTGCGTCATGGTCCCACTGTTCATTACTTTCCTTCGGAGTCACCTAGTGCAG | 9080 fluorescence intensity (a.u.) |
| TGGCTTCTTTGATTAGGTATTTATTCGACGTGTGATATTGCGGAGTCACCTAGTGCAG | 9200 fluorescence intensity (a.u.) |
| GTATGGTTGACTGAATTGTTTGACTTATCTTTGGCATTGACGGAGTCACCTAGTGCAG | 14400 fluorescence intensity (a.u.) |
| TGTTCCTGACCTGTTAGCATGTTGCTTTTGCTGGAGTAGTCGGAGTCACCTAGTGCAG | 9040 fluorescence intensity (a.u.) |
| CCACCACCGCACAGCACCTCTCAGCTCTCACCCGCGGGGACGGAGTCACCTAGTGCAG | 8660 fluorescence intensity (a.u.) |
| GTGTGTGGCTGACAGGTGGGCCCCGATGCATCTCCGAAAACGGAGTCACCTAGTGCAG | 8970 fluorescence intensity (a.u.) |
| GGGGACAGGCATAGGGGACATCCTTCGAGAGACACGAAAACGGAGTCACCTAGTGCAG | 8300 fluorescence intensity (a.u.) |

Reformatted with bars between the fields: part of the list above.
Sequence | binding signal
GTATGGTTGACTGAATTGTTTGACTTATCTTTGGCATTGACGGAGTCACCTAGTGCAG | 14400 fluorescence intensity (a.u.)
TGTTCCTGACCTGTTAGCATGTTGCTTTTGCTGGAGTAGTCGGAGTCACCTAGTGCAG | 9040 fluorescence intensity (a.u.)
